The supplement of paper PMC6411743
± gives the standard deviation of the averaged measurements. Some of the results follow.

Molecular target: UniProt P07900 and related entries
Test: NP40-soluble protein abundance relative to vehicle (solubility fold change) (ratio); higher = more soluble protein in presence of GTP
Procedure: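 Solubility proteome profiling in Jurkat crude lysate. Lysate was treated with Mg-GTP (0.1-10 mM) for 10 min at room temperature and 3 min at 37 °C, then solubilised with 0.8% NP40 and benzonase, followed by ultracentrifugation. Proteins were quantified by TMT10 LC-MS/MS; the value is the NP40-soluble abundance relative to the NP40-processed vehicle, from 3 independent experiments.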

## Nc1nc2c(ncn2[C@@H]2O[C@H](COP(=O)(O)OP(=O)(O)OP(=O)(O)O)[C@@H](O)[C@H]2O)c(=O)[nH]1 [guanosine triphosphate]
concentration: 0.1mM
  NP40-soluble protein abundance: 0.96 ± 0.049
concentration: 0.5mM
  NP40-soluble protein abundance: 0.993 ± 0.054
concentration: 1mM
  NP40-soluble protein abundance: 0.93 ± 0.047
concentration: 2mM
  NP40-soluble protein abundance: 0.913 ± 0.042
concentration: 4mM
  NP40-soluble protein abundance: 0.912 ± 0.045
concentration: 6mM
  NP40-soluble protein abundance: 0.91 ± 0.046
concentration: 8mM
  NP40-soluble protein abundance: 0.889 ± 0.055
concentration: 10mM
  NP40-soluble protein abundance: 0.879 ± 0.042
